PubChem BioAssay AID1259264 – Sanger Institute, 2017
Shown is an unselected part of 794 reagents. 15 of them (1.9%) count as active. 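Calls rest on knock-down alone at z-score below -3; synergy scores with the three drugs do not decide them.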 The numbers tell different reagents against one gene apart. Further read-outs or replicates are left out here. Not given: the amount of reagent, the time to read-out.

- Assay: 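Kinases needed for CL40 growth and those that boost anti-cancer drug killing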 (primary screen)
- System: CL40 human colorectal cancer cells
- Reagent: siRNA pool against human genes
- Conditions: DMSO, or an anchor drug: BYL719 at 1 µM, cetuximab at 5 µg/ml, or trametinib at 10 nM
- Read-out: 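Replicate-mean viability versus a non-targeting pool, robust z-score from control wells, and mean synergy with BYL719 1 µM, cetuximab 5 µg/ml or trametinib 10 nM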
- Direction: robust z-score, siRNA alone: higher = more viable cells
- Call rule: 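a gene counts as essential when knock-down without drug gives a robust z-score below -3, meaning fewer cells; synergy scores play no part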
- Meaning of the calls: active = essential (lowers viability alone); inactive = not essential

Against TCF12, the values are robust z-score, siRNA alone 0.539; inactive.
Silencing of CMPK1 resulted in: robust z-score, siRNA alone 0.539; inactive.
PRKX showed robust z-score, siRNA alone 0.152; inactive.
PTGS1 scored robust z-score, siRNA alone -0.349; inactive.
After knock-down of GUCY2EP, the screen gave robust z-score, siRNA alone -0.0703; inactive.
TSSK1B showed robust z-score, siRNA alone 0.539; inactive.
Knock-down of ILK #1 came out at: robust z-score, siRNA alone 0.376; inactive.
With knock-down of ILK #2, the screen gave robust z-score, siRNA alone 0.539; inactive.
EFNB3 gave robust z-score, siRNA alone -2.09; inactive.
For GRK7, the entry reads robust z-score, siRNA alone 0.539; inactive.
After knock-down of FGFRL1, the record shows robust z-score, siRNA alone 0.199; inactive.
Depletion of STK17A came out at: robust z-score, siRNA alone 0.481; inactive.
Against PDXK, the entry reads robust z-score, siRNA alone 0.539; inactive.
GATA3 scored robust z-score, siRNA alone 0.539; inactive.
For AMHR2, the values are robust z-score, siRNA alone -0.61; inactive.
For PRKAG3, the entry reads robust z-score, siRNA alone -2.77; inactive.
For PRKCQ, the entry reads robust z-score, siRNA alone 0.539; inactive.
Against RPS6KA6, the entry reads robust z-score, siRNA alone 0.539; inactive.
Silencing of NR4A2 gave: robust z-score, siRNA alone 0.539; inactive.
TAOK2 scored robust z-score, siRNA alone 0.0473; inactive.
IP6K1 gave robust z-score, siRNA alone 0.539; inactive.
Depletion of STK38L came out at: robust z-score, siRNA alone 0.408; inactive.
With knock-down of CDC42BPA the results were robust z-score, siRNA alone -0.491; inactive.
Silencing of LMTK1 resulted in: robust z-score, siRNA alone 0.393; inactive.

3 of these entries in another layout.
GUCY2EP
- robust z-score, siRNA alone: -0.0703
- activity call: inactive

TSSK1B
- robust z-score, siRNA alone: 0.539
- activity call: inactive

ILK #1
- robust z-score, siRNA alone: 0.376
- activity call: inactive

More entries follow.
Against MUSK the deposit lists robust z-score, siRNA alone -0.165; inactive.
RSKR showed robust z-score, siRNA alone 0.539; inactive.
MASTL showed robust z-score, siRNA alone -0.144; inactive.
After knock-down of PIP4K2C, the screen gave robust z-score, siRNA alone -0.529; inactive.
TP53BP1 showed robust z-score, siRNA alone 0.539; inactive.
After knock-down of ANKK1 the results were robust z-score, siRNA alone 0.539; inactive.
Knock-down of SYK resulted in: robust z-score, siRNA alone -3.15; active.
With knock-down of CSNK1G3, the screen gave robust z-score, siRNA alone 0.539; inactive.
With knock-down of SGK1, the record shows robust z-score, siRNA alone 0.539; inactive.
Depletion of GRK1 came out at: robust z-score, siRNA alone 0.539; inactive.
After knock-down of BMPR1A, the screen gave robust z-score, siRNA alone 0.539; inactive.
Depletion of IPPK resulted in: robust z-score, siRNA alone 0.539; inactive.
